In paper PMC10074136:

T1: cytochrome c oxidase subunit 4 isoform 2 (COX4I2) (mouse (endogenous in mouse chondrocytes)) (UniProt Q91W29)
T1 sequence: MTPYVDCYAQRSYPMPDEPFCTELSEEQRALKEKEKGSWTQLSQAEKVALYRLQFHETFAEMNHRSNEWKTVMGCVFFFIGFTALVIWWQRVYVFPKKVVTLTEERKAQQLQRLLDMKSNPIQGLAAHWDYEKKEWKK


Experiments:
[1] = target: T1, cytochrome c oxidase subunit 4 isoform 2 (COX4I2) (mouse (endogenous in mouse chondrocytes)); assay: co-IP; lysates of mouse chondrocytes transfected with or without Sirt3-targeting pcDNA3.1 vector; precleared with protein A/G plus agarose; anti-SIRT3, anti-COX4I2 or non-specific IgG at 4 °C overnight; western blot; forward and reverse
[2] = target: Silent mating type information regulation 2 homolog 3 (SIRT3) (mouse (endogenous in mouse chondrocytes)); assay: as above

| binding [1] | binding [2] | Molecule |
| --- | --- | --- |
| binds |  | Silent mating type information regulation 2 homolog 3 (SIRT3) (mouse (endogenous in mouse chondrocytes)) (enzyme) |
|  | binds | cytochrome c oxidase subunit 4 isoform 2 (COX4I2) (protein, UniProt Q91W29 35-172) MTPYVDCYAQRSYPMPDEPFCTELSEEQRALKEKEKGSWTQLSQAEKVALYRLQFHETFAEMNHRSNEWKTVMGCVFFFIGFTALVIWWQRVYVFPKKVVTLTEERKAQQLQRLLDMKSNPIQGLAAHWDYEKKEWKK |

Results are given in words; binding and its absence hold for the method and conditions named. Binding seen in cells or lysates may run through a third protein. A result given as binding can be weak or reduced; the word gives no strength.
